Measurements published in patent US7736909B2, “Methods and compositions comprising capture agents” (Board of Regents, the University of Texas System, priority 2003, dated 2010).
Part of at least one peptide drawing is inferred or uncertain, most often the ends. Non-standard residues stand in square brackets, D forms with d. Residues, ends and D or L forms follow the SMILES beside them. N(4-Sulfamoylphenethyl)Gly = NS(=O)(=O)c1ccc(CCNCC(=O)O)cc1; Gly(N-piperonyl) = O=C(O)CNCc1ccc2c(c1)OCO2; Gly(N-CH2CH2OH) = O=C(O)CNCCO; Nlys = NCCCCNCC(=O)O

Sequences of proteins named here, by UniProt entry; tags and fusion partners are left off.
UniProt Q00987, whole entry, looked up: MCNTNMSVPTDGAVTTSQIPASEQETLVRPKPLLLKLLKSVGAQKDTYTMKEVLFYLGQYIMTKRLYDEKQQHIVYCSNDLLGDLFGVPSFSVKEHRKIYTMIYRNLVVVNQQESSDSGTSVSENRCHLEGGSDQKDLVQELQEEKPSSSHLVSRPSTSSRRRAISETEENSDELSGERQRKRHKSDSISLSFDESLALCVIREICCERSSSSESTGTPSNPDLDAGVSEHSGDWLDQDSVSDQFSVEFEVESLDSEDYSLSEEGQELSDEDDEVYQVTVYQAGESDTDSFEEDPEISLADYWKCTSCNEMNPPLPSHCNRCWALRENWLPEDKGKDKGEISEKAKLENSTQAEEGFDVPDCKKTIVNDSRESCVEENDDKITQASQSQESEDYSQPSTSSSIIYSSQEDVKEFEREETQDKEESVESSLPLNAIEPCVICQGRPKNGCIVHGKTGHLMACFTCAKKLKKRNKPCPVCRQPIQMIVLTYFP
UniProt P08515, whole entry: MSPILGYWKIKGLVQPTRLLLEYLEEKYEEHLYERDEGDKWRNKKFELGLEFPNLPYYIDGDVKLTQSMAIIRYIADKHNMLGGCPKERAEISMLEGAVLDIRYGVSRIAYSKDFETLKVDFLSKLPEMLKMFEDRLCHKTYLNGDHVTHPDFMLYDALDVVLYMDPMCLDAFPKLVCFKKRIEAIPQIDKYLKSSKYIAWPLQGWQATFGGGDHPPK

Legend:
MBP [1] = target: T1, MBP (Escherichia coli, UniProt P0AEX9); assay: protein capture by TentaGel-displayed ligands, control protein; type: binding; conditions: 500 nM protein, 2% BSA
MBP-Mdm2 = target: T2, MBP-Mdm2 (UniProt P0AEX9+Q00987); type: binding, human; conditions: 500 nM protein, 2% BSA
T2 construct: The domain of the human Mdm2 protein represented by residues 1-188 is a structurally characterized monomer; made in house; host or cells: E. coli BL21-RIL
Protocol: Five milligrams of TentaGel beads (displaying the respective hit sequences, Nlys-Nbsa-Nlys-Nser-Nbsa-Npip-Nbsa-Npip-CONH2 and Nbsa-Nlys-Nbsa-Npip-Nlys-CONH2 or a random sequence Npip-Nser-Nbsa-Nall-Nlys-Npip-CONH2) were equilibrated in phosphate-buffered saline (PBS) for 60 minutes. The buffer was removed and the beads were blocked with 2% BSA for 60 minutes to saturate any non-specific binding sites. The beads were then washed with PBS (3 times), and incubated with 500 nM (unless indicated otherwise) of a Texas Red-labeled protein (MBP-MDM2 or GST) in 2% BSA (in 1×TBST buffer), in a 300 μL volume for 60 minutes. The beads were washed with TBST six times to remove any unbound protein and photographed under a fluorescence microscope. […]
To probe the binding chemistry of chimeric binding ligand formula 2 on a solid support, which is more relevant to the issue of creating high affinity protein capture agents, TentaGel beads were prepared that display either chalcone formula 1 alone, the 10 mer peptoid NH2-Nlys-Npip-Nlys-Nser-Nlys-Nlys-Nlys-Nlys-Npip-Npip alone, or the chalcone-peptoid chimeric binding element of formula 2. […] Two populations of beads were then mixed in a 1:1 ratio and photographed under a fluorescence microscope to provide a direct comparison.
After thorough washing, the beads were photographed in the fluorescence microscope using identical settings in each case.

MBP [2] = target: T1, MBP; assay: isothermal titration calorimetry (ITC), MBP alone; type: binding; conditions: in solution
Protocol: Isothermal titration calorimetry (ITC). ITC experiments were conducted on a MicroCal VP-ITC instrument. For the titration, 70 μM MBP-hmdm2 or 30 μM GST in PBS+10% DMSO was taken in the sample cell. To this, 15 μl aliquots of the peptoid solution in the same buffer were added from a computer-controlled 250 μl rotating syringe. The syringe was set at 400 rpm with intervals of 3 minutes between injections to attain baseline stabilization. The heat absorbed or released accompanying the titration was recorded as differential power (DP) by the instrument software. Experiments were carried out with C values between 1 and 400. The total heat recorded was then fitted via a non-linear least-squares minimization method. Titration of the ligand solution with the buffer alone gave the heats of dilution. Titration with MBP alone was recorded under identical conditions.

GST = target: T3, GST (Schistosoma japonicum, UniProt P08515); assay: protein capture and dilution experiment with TentaGel-displayed peptoid; type: binding
T3 construct: made in house; host or cells: E. coli BL21-RIL

His6Gal80 = target: T4, His6Gal80 (Saccharomyces cerevisiae, UniProt P04387); assay: lysate experiment: specificity of capture from E. coli lysate (silver stain); type: binding; conditions: Gal80 5% of total protein, silver staining
T4 construct: His6 (N); made in house; host or cells: E. coli
T4 sequence (P04387 1-435): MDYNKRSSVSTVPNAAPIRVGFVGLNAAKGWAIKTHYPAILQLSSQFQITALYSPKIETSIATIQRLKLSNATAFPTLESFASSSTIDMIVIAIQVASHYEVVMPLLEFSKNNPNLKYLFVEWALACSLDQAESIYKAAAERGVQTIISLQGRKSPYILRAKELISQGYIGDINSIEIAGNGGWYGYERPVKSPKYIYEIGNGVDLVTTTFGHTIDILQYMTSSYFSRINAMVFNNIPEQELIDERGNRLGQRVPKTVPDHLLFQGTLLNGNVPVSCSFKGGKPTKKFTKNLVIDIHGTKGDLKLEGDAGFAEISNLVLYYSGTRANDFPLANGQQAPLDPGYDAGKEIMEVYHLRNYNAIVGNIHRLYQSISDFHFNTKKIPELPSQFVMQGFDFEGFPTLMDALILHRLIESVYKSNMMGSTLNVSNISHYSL
Protocol: Lysate Experiment. E. coli lysate was prepared by growing BL21 cells to an OD600 of 0.8. Cells were lysed by sonication in PBS buffer. After sonication, triton X-100 was added to 1%. His6Gal80 was doped into the E. coli lysate (67 μg/mL) such that it constituted 5% of the total protein. Approximately 0.02 g of Tentagel beads on which the Gal80-binding peptide had been synthesized and deprotected were added to 300 μL of the E. coli lysate containing His6Gal80 and incubated for 2 hours at 4° C. The beads were washed four times for ten minutes each time at 4 with PBS buffer+1% triton X-100 at 150 mM NaCl at 4° C. and then twice with PBS buffer. GSTGal4 AD (activation domain) was pre-incubated with glutathione sepharose beads and then used as a positive control to pull-down His6Gal80 from the lysate under the same conditions. Gel loading dye was added directly to the beads, loaded onto a SDS polyacrylamide gel and analyzed by silver stain.
To address this point, the Gal80 bp/Gal80 pair was again employed. His6Gal80 was doped into an E. coli lysate such that Gal80 represented 5% of the total protein concentration. This solution was then incubated with the Tentagel-bound Gal80 bp followed by thorough washing to remove any unbound material. The composition of the proteins captured by the peptide was then addressed by SDS-PAGE followed by silver staining. […]

In the case of `NCCCCNCC(=O)N(CCc1ccc(S(N)(=O)=O)cc1)CC(=O)N(CCCCN)CC(=O)N(CCO)CC(=O)N(CCc1ccc(S(N)(=O)=O)cc1)CC(=O)N(CC(=O)N(CCc1ccc(S(N)(=O)=O)cc1)CC(=O)N(CC(N)=O)Cc1ccc2c(c1)OCO2)Cc1ccc2c(c1)OCO2` [Nlys-Nbsa-Nlys-Nser-Nbsa-Npip-Nbsa-Npip] (H-[Nlys][N(4-Sulfamoylphenethyl)Gly][Nlys][Gly(N-CH2CH2OH)][N(4-Sulfamoylphenethyl)Gly][Gly(N-piperonyl)][N(4-Sulfamoylphenethyl)Gly][Gly(N-piperonyl)]-NH2), the “capture of Texas Red-labeled MBP” value (MBP [1]) is reported as “little MBP binding”, the “capture of Texas Red-labeled MBP-Mdm2” value (MBP-Mdm2) is reported as “captured the MBP-Mdm2 protein efficiently” and the “binding to MBP, ITC” value (MBP [2]) is reported as “little or no binding”.

For `NCCCCN(CC(N)=O)C(=O)CN(Cc1ccc2c(c1)OCO2)C(=O)CN(CCc1ccc(S(N)(=O)=O)cc1)C(=O)CN(CCCCN)C(=O)CNCCc1ccc(S(N)(=O)=O)cc1` [Nbsa-Nlys-Nbsa-Npip-Nlys-CONH2] (H-[N(4-Sulfamoylphenethyl)Gly][Nlys][N(4-Sulfamoylphenethyl)Gly][Gly(N-piperonyl)][Nlys]-NH2), the “retention of Texas Red-labeled protein on TentaGel” value (GST; 500 nM GST or MBP, 2% BSA) was “retained Texas Red-labeled GST, but not a control protein (MBP)”, the “retention of unlabeled GST” value (GST; 1000-fold excess of E. coli extract) was “unlabeled GST was retained” and the “GST concentrations at which capture was seen” value (GST; Texas Red-labeled GST, 100-fold excess E. coli extract) was 1 to 0.1 µM. The “fluorescence at 10 nM protein” value (GST; Texas Red-labeled GST, 100-fold excess E. coli lysate) was “little or no fluorescence above background”.

In the case of `CSCC[C@H](NC(=O)[C@H](CC(=O)O)NC(=O)[C@H](CCC(N)=O)NC(=O)[C@H](CC(=O)O)NC(=O)[C@@H](N)Cc1ccc(O)cc1)C(=O)N[C@@H](CCC(N)=O)C(=O)N[C@@H](CC(N)=O)C(=O)N[C@@H](CC(N)=O)C(=O)N[C@H](C(=O)N[C@@H](Cc1ccccc1)C(=O)N[C@@H](CC(=O)O)C(=O)N[C@@H](CC(=O)O)C(=O)N[C@@H](CC(C)C)C(=O)N[C@@H](Cc1ccccc1)C(=O)N[C@@H](Cc1c[nH]c2ccccc12)C(=O)N[C@@H](CCCCN)C(=O)N[C@@H](CCC(=O)O)C(=O)NCC(=O)N[C@@H](Cc1c[nH]cn1)C(=O)N[C@@H](CCCNC(=N)N)C(=O)O)[C@@H](C)O` [Ga180bp] (H-YDQDMQNNTFDDLFWKEGHR-OH; N-terminus and C-terminus assumed), the “proteins retained from Gal80-doped E. coli lysate” value (His6Gal80) is reported as “Gal80 was the only detectable protein retained”.
